From US20100034772A1, “COMPOSITIONS AND METHODS FOR IMMUNOTHERAPY” (priority 2006, published 2010)

System: NK cells / Ge-con target cells
Assay: 51Chromium release assay: lysis of Ge-con melanoma target cells by isolated NK cells
Assay type: cell-based, human
Details: TKD 2 μg/ml plus IL-2 5 days; SAHA 10 μM 20 h; interaction p=0.0003; especially at lower effector:target ratios; FIG. 10B
Method: The human melanoma cell line Ge, the Ge-Hsp70 and Ge-con sublines derived therefrom (clones Ge-Hsp70-A, Ge-Hsp70-C, Ge-TCR-C, and Ge-GFP-B) (15), mouse fibroblast L cells, and transfected L cells were maintained in NaHCO3-buffered DMEM supplemented with 10% FCS (Biochrom, Berlin, Germany), 2 mM L-glutamine, 1 mM sodium pyruvate, 50 μM 2-mercaptoethanol and antibiotics (100 U/ml penicillin, 100 μg/ml streptomycin) (Sigma) in Petri dishes for tissue culture (Sarstedt, Nümbrecht, Germany) at 37° C. in a 10% CO2 atmosphere. Human erythroleukemia K562 and mouse lymphoma YAC-1 cells were maintained under the same conditions in Petri dishes for suspension cells (Sarstedt). To induce MICA and MICB expression, Ge cells were cultured in DMEM with 10 μM of the histone deacetylase inhibitor suberoylanilide hydroxyamic acid (SAHA) 20 h before the tests (24). L cells were co-transfected by electroporation with 30 μg of the cosmid […] (25) containing the MIC3 gene of the rhesus macaque (Macaca mulatta) which is orthologous to human MICA, and with 1 μg of the dsRED vector (Clontech, Mountain View, USA), which confers resistance to geneticin (Invitrogen, Karlsruhe, Germany). […] MICA mRNA expression was analyzed by Northern blot and cell surface expression by flow cytometry. […] Spontaneous release was determined by incubation of target cells in the absence of effector cells. […]

O=C(CCCCCCC(=O)Nc1ccccc1)NO [SAHA, suberoylanilide hydroxyamic acid]
killing of Ge-con target cells: combination of TKD treatment of NK cells and SAHA treatment of target cells: acted synergistically
